Experimental data published in PubChem BioAssay AID304 (DTP/NCI, 2004).
The list does not hold the whole screen: it is rich in T/C values a quarter to a half above the control, in often repeated tests (any T/C) and in doses without a T/C. Further doses and runs are listed elsewhere. T/C is the treated group as % of the vehicle group. Some entries give survivors of the animals treated and no T/C: the source files T/C as zero there, which appears to mark a toxic dose or a test without result, not a measured value. Some doses without a T/C left all or most animals alive at the check, yet need not have been tolerated: survival well below the control is almost never listed, so the zero probably covers shortened survival too. Survivors were counted at the toxicity check, usually on the fifth day, unless a day is given; later deaths do not show. Schedule codes are those of the source, read here as Q, the interval in days (D) or hours (H), X, the number of doses. Some entries were tested several times; the results are listed from low to high. Some structures stand for samples that the source files as different forms (salt, stereo form or complex); doses refer to the form tested. Where survival is the endpoint, this PubChem deposit counts one and a half times the control or more as active, and values a quarter to a half above the control carry no call in these data; other NCI protocols may use other cut-offs. Brackets with × say how often a value occurs here. Some T/C values are followed by the survivors on the day toxicity was checked, most often the fifth; without a count, all were alive then. Starred links: 1 amine or outer side, 2 acyl side, 3 side chain; linkers in the order of their positions; H or OH if unused. Positions of bridges follow the written chain, without caps; N, C: chain ends. Non-standard residues stand in square brackets, D forms with d. Residues, ends and D or L forms follow the SMILES beside them. Chains are numbered I, II in the order given. Actinocin(9to1) = Cc1c2oc3c(C)ccc(C(=O)[*:1])c3nc-2c(C(=O)[*:2])c(N)c1=O; aThr = C[C@H](O)[C@H](N)C(=O)O; NMeV = CN[C@H](C(=O)O)C(C)C; Sar = CNCC(=O)O

Test system: Lymphosarcoma Mecca ip in C3AKF1 mice, survival T/C%
Experiment: NCI In Vivo Anticancer Drug Screen. Data for tumor model Lymphosarcoma Mecca (intraperitoneal) in C3AKF1 (CHKRF1) mice
Settings: T/C endpoint: survival time, mean or median, higher T/C = longer survival
Procedure: The antitumor activity of compounds was measured in mice bearing transplantable tumors. Survival or tumor size were measured and the results are expressed as the measurement made in the treated group (T) divided by the measurement made in the vehicle treated control group (C). The tumor model used in this assay is Lymphosarcoma Mecca (intraperitoneal) in C3AKF1 (CHKRF1) mice

[1] = dose: 6.25 mg/kg/injection, schedule: Q01DX010 (ip), vehicle: saline
[2] = dose: 25.0 mg/kg/injection, schedule: Q01DX010 (ip), vehicle: saline
[3] = dose: 50.0 mg/kg/injection, schedule: Q01DX010 (ip), vehicle: saline
[4] = dose: 100.0 mg/kg/injection, schedule: Q01DX010 (ip), vehicle: saline
[5] = dose: 200.0 mg/kg/injection, schedule: Q01DX010 (ip), vehicle: saline
[6] = dose: 4.0 mg/kg/injection, schedule: Q01DX010 (ip), vehicle: saline
[7] = dose: 8.0 mg/kg/injection, schedule: Q01DX010 (ip), vehicle: saline
[8] = dose: 0.4 mg/kg/injection, schedule: Q01DX010 (ip), vehicle: other
[9] = dose: 0.13 mg/kg/injection, schedule: Q01DX010 (ip), vehicle: saline
[10] = dose: 2.0 mg/kg/injection, schedule: Q01DX010 (ip), vehicle: saline
[11] = dose: 6.0 mg/kg/injection, schedule: Q01DX010 (ip), vehicle: saline
[12] = dose: 12.0 mg/kg/injection, schedule: Q01DX010 (ip), vehicle: saline
[13] = dose: 10.0 mg/kg/injection, schedule: Q01DX010 (ip), vehicle: saline
[14] = dose: 2.5 mg/kg/injection, schedule: Q01DX010 (ip), vehicle: saline
[15] = dose: 5.0 mg/kg/injection, schedule: Q01DX010 (ip), vehicle: saline
[16] = dose: 20.0 mg/kg/injection, schedule: Q01DX010 (ip), vehicle: saline
[17] = dose: 1.25 mg/kg/injection, schedule: Q01DX010 (ip), vehicle: saline

`O=[n+]1c2c(n([O-])c3ccccc31)-c1cccc3cccc-2c13` was tested, and the survivor count [1] was 5 of 6, the survivor count [2] was 5 of 6 and the survivor count [3] was 6 of 6. The survivor count [4] was 6 of 6 and the survivor count [5] was 6 of 6.
In the case of `O=C(Nc1ccc(C2=NCCCN2)cc1)c1ccc(C(=O)Nc2ccc(C3=NCCCN3)cc2)cc1`, the T/C [6] was 127 % of control (2×) and the T/C [7] was 144 % of control.
`OC(CBr)C(O)C(O)C(O)CBr` (stereo unspecified) was tested, and the T/C [5] was 140 % of control.
With `Nc1nc(N)c2nc(CNc3ccc(C(=O)NC(CCC(=O)O)C(=O)O)cc3)cnc2n1` (stereo unspecified) the T/C [8] was 130 % of control and the survivor count [8] was 6 of 6.
With `CC(=O)NC1=C(N2CC2)C(=O)C(NC(C)=O)=C(N2CC2)C1=O` the T/C [9] was 127 % of control.
In the case of `O=NN(CCCl)C(=O)NCCCl`, the survivor count [3] was 6 of 6.
With `C[C@]12C=CC(=O)C=C1CC[C@@H]1[C@@H]2[C@@H](O)C[C@@]2(C)[C@H]1CC[C@]2(O)C(=O)CO` the T/C (dose: 12.5 mg/kg/injection, schedule: Q01DX010 (sc), vehicle: steroid suspending solution) was 135 % of control, the T/C (dose: 25.0 mg/kg/injection, schedule: Q01DX010 (sc), vehicle: steroid suspending solution) was 125 % of control and the survivor count (dose: 50.0 mg/kg/injection, schedule: Q01DX010 (sc), vehicle: steroid suspending solution) was 6 of 6. For the same compound, the survivor count (dose: 100.0 mg/kg/injection, schedule: Q01DX010 (sc), vehicle: steroid suspending solution) was 6 of 6.
`Cc1c2oc3c(C)ccc(C(=O)N[C@@H]4C(=O)N[C@H](C(C)C)C(=O)N5CCC[C@H]5C(=O)N(C)CC(=O)N(C)[C@@H](C(C)C)C(=O)O[C@H]4C)c3nc-2c(C(=O)N[C@@H]2C(=O)N[C@H](C(C)C)C(=O)N3CCC[C@H]3C(=O)N(C)CC(=O)N(C)[C@@H](C(C)C)C(=O)O[C@H]2C)c(N)c1=O` (I: [aThr][dV]P[Sar][NMeV] / II: [aThr][dV]P[Sar][NMeV]; ester I:1-I:C, II:1-II:C; linker I:N-II:N via Actinocin(9to1)) was tested, and the survivor count (dose: 13.0 micrograms/kg/injection, schedule: Q01DX010 (ip), vehicle: acid diluted with saline) was 6 of 6, the survivor count (dose: 25.0 micrograms/kg/injection, schedule: Q01DX010 (ip), vehicle: acid diluted with saline) was 6 of 6 and the T/C (dose: 50.0 micrograms/kg/injection, schedule: Q01DX010 (ip), vehicle: acid diluted with saline) was 145 % of control. The survivor count (dose: 100.0 micrograms/kg/injection, schedule: Q01DX010 (ip), vehicle: acid diluted with saline) was 6 of 6.
`O=C(Nc1ccc(NC2=NCCN2)cc1)c1ccc(C(=O)Nc2ccc(NC3=NCCN3)cc2)cc1` was tested, and the T/C [10] was 130 and 150 % of control, the survivor count [10] was 6 of 6 and the T/C [6] was 96, 110, 116, 140 % of control. The T/C [7] was 103, 140, 155 % of control, the survivor count [7] was 6 of 6 and the T/C (dose: 16.0 mg/kg/injection, schedule: Q01DX010 (ip), vehicle: saline) was 89, 104, 130, 140 % of control.
For `O[C@H](CN1CC1)[C@@H](O)CN1CC1`, the T/C (dose: 500.0 micrograms/kg/injection, schedule: Q01DX010 (ip), vehicle: saline) was 125 % of control.
In the case of `CCN(CC)CCNc1ccc(C)c2sc3ccccc3c(=O)c12`, the T/C [3] was 127 % of control, the survivor count [4] was 6 of 6 and the survivor count [5] was 5 of 6 and 6 of 6.
In the case of `CCCSc1ncnc2nc[nH]c12`, the survivor count (dose: 250.0 mg/kg/injection, schedule: Q01DX010 (ip), vehicle: saline) was 5 of 6.
With `COC(=O)[C@@H]1c2cc3c(c(O)c2[C@@H](OC2OC(C)C(OC)C(C)(OC)C2OC)C[C@]1(C)O)C(=O)c1c(O)cc2c(c1C3=O)O[C@H]1O[C@]2(C)[C@H](O)[C@@H](N(C)C)[C@@H]1O` (stereo partly specified) the survivor count (dose: 1000.0 micrograms/kg/injection, schedule: Q01DX010 (ip), vehicle: saline) was 5 of 6 and 6 of 6.
For `N=[N+]=CC(=O)OCC(N)C(=O)O` (stereo unspecified), the T/C [1] was 130 % of control, the T/C (dose: 12.51 mg/kg/injection, schedule: Q01DX010 (ip), vehicle: saline) was 130 % of control and the survivor count [2] was 6 of 6.
In the case of `Nc1ncnc2[nH]ncc12`, the survivor count (dose: 1.5 mg/kg/injection, schedule: Q01DX010 (ip), vehicle: saline) was 6 of 6, the survivor count [11] was 6 of 6 and the survivor count [12] was 6 of 6.
`CCOC(=O)NP(=O)(N1CC1)N1CC1` was tested, and the T/C [13] was 144 % of control.
With `O=C(Nc1ccc(C2=NCCN2)cc1)c1ccc(C(=O)Nc2ccc(C3=NCCN3)cc2)c([N+](=O)[O-])c1` the T/C [11] was 127 % of control, the T/C [7] was 127 % of control and the T/C [12] was 144 % of control [8 of 10 alive]. The survivor count (dose: 18.0 mg/kg/injection, schedule: Q01DX010 (ip), vehicle: saline) was 5 of 10 and 8 of 10.
For `NC(Cc1ccc(N(CCCl)CCCl)cc1)C(=O)O` (stereo unspecified), the T/C [14] was 135 and 145 % of control, the T/C [15] was 130 % of control and the T/C [7] was 125 % of control. For the same compound, the survivor count [16] was 6 of 6.
`C[C@H](N)C(=O)N[C@@H]1[C@H]2C(=C(O)C[C@@H](O)[C@@H]2O)C(=O)O[C@@H]1C` was tested, and the T/C (dose: 150.0 mg/kg/injection, schedule: Q01DX010 (ip), vehicle: saline) was 144 % of control, the T/C (dose: 300.0 mg/kg/injection, schedule: Q01DX010 (ip), vehicle: saline) was 135 % of control and the T/C (dose: 1200.0 mg/kg/injection, schedule: Q01DX010 (ip), vehicle: saline) was 140 % of control.
For `C1CN1c1nc(N2CC2)nc(N2CC2)n1`, the T/C [9] was 144 % of control, the T/C (dose: 0.25 mg/kg/injection, schedule: Q01DX010 (ip), vehicle: saline) was 125 % of control and the T/C (dose: 0.5 mg/kg/injection, schedule: Q01DX010 (ip), vehicle: saline) was 145 % of control. The survivor count (dose: 1.0 mg/kg/injection, schedule: Q01DX010 (ip), vehicle: saline) was 6 of 6.
In the case of `S=P(N1CCOCC1)(N1CC1)N1CC1`, the survivor count [14] was 6 of 6, the survivor count [13] was 6 of 6 and the survivor count [16] was 4 of 6 and 6 of 6.
For `Nc1nc2n[nH]nc2c(=O)[nH]1`, the survivor count (dose: 25.0 mg/kg/injection, schedule: Q01DX010 (ip), vehicle: alkali diluted with saline) was 6 of 6, the survivor count (dose: 100.0 mg/kg/injection, schedule: Q01DX010 (ip), vehicle: alkali diluted with saline) was 6 of 6 and the survivor count (dose: 200.0 mg/kg/injection, schedule: Q01DX010 (ip), vehicle: alkali diluted with saline) was 5 of 6 and 6 of 6.
In the case of `N#[N+]c1cnc([O-])[nH]c1=O`, the T/C [17] was 128 % of control, the T/C [14] was 128 % of control and the T/C [13] was 133 % of control.
For `O=c1[nH]cc(F)c(=O)[nH]1`, the T/C [13] was 130 % of control.
For `CCN(CC)CCCC(C)Nc1c2ccc(Cl)cc2nc2ccc(OC)cc12` (stereo unspecified), the survivor count [5] was 0 of 6.
In the case of `CN(C)[C@@H]1C(=O)C(C(N)=O)=C(O)[C@@]2(O)C(=O)C3=C(O)c4c(O)cccc4C[C@H]3C[C@@H]12`, the survivor count (dose: 60.0 mg/kg/injection, schedule: Q01DX010 (ip), vehicle: saline) was 6 of 6.
With `Nc1nc(=S)c2[nH]cnc2[nH]1` the T/C [17] was 113, 116, 163, 183 % of control, the T/C [14] was 86, 118, 127 % of control and the survivor count [14] was 6 of 6. The T/C [15] was 109 and 118 % of control, the survivor count [15] was 6 of 6 and the T/C [13] was 86 (2×) and 100 % of control. The survivor count [13] was 6 of 6.
In the case of `CC[n+]1c(-c2ccccc2)c2cc(N)ccc2c2ccc(N)cc21`, the T/C [15] was 125 % of control.
`CN(C)/N=N/c1nc[nH]c1C(N)=O` was tested, and the T/C [3] was 133 % of control, the T/C [4] was 133 % of control and the T/C [5] was 144 % of control.
With `COC1C(OC(=O)/C=C/C=C/C=C/C=C/C(=O)O)CCC2(CO2)C1C1(C)OC1CC=C(C)C` (stereo unspecified) the survivor count (dose: 400.0 mg/kg/injection, schedule: Q01DX010 (ip), vehicle: saline) was 0 of 6.
`Oc1cc(CN(CCCl)CCCl)c(O)cc1CN(CCCl)CCCl` was tested, and the T/C [17] was 130 % of control, the T/C [14] was 140 % of control and the T/C [15] was 130 % of control.
